Source: patent US20150110793A1
Results are given in words; binding and its absence hold for the method and conditions named. Some entries that bind do so weakly or less than the wild type.

Key:
[1] = molecular target: T1, Human EREG (Biacore analyte) (human) (UniProt O14944); assay: SPR (Biacore)
T1 sequence: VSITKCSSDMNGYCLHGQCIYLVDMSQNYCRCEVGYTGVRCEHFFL

[2] = molecular target: T2, cynomolgus EREG (Biacore analyte) (cynomolgus monkey); assay: SPR (Biacore)
T2 sequence: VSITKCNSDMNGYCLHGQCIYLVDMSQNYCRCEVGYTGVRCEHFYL

[3] = molecular target: T1, Human EREG (Biacore analyte) (human); assay: SPR (Biacore T100, single-cycle kinetics), antibody captured on Protein A, human EREG as analyte; bar = KD of the antibody / KD of chimeric EP27
[4] = molecular target: T2, cynomolgus EREG (Biacore analyte) (cynomolgus monkey); assay: SPR (Biacore T100, single-cycle kinetics), antibody captured on Protein A, cynomolgus or human EREG as analyte; bar = KD for monkey Epiregulin / KD for human Epiregulin

Measured: binding

B1: H150-G1d/L21-k (antibody, human IgG1, kappa, V domains shown)
VH: QDQLVQSGAEVKKPGASVKVSCKASGFNIKDTYIQWVRQAPGQGLEWMGRIDPLRRNTKYREKFEGRVTITADTSTNTAYMELSSLRSEDTAVYYCVRSGRSFDFWGQGTLVTVSS
VL: DIQMTQSPSSLSASVGDRVTITCQASQDIHKYIAWYQQKPGQAPRLLIQYTSTLQPGVPSRFSGSGSGTDYTFTISSLQPEDIATYYCLQYDNLRTFGGGTKVEIER
binds: all assays above

B2: H154-G1d/L48-k (antibody, human IgG1, kappa, V domains shown)
VH: QDQLVQSGAEVKKPGASVKVSCKASGFNIKDTYIQWVRQAPGQGLEWMGRIDPLRRNTKYREKFEGRVTITADTSTNTAYMELSSLRSEDTAVYYCVRSGREFDFWGQGTLVTVSS
VL: DIQMTQSPSSLSASVGDRVTITCKASQDIHKYIAWYQQKPGQAPRLLIQYTSTLQPGVPSRFSGSGSGTDYTFTISSLQPEDIATYYCLQYDNRRTFGGGTKVEIKR
binds: all assays above

B3: H154-G1d/LB-k (antibody, human IgG1, kappa, V domains shown)
VH: QDQLVQSGAEVKKPGASVKVSCKASGFNIKDTYIQWVRQAPGQGLEWMGRIDPLRRNTKYREKFEGRVTITADTSTNTAYMELSSLRSEDTAVYYCVRSGREFDFWGQGTLVTVSS
VL: DIQMTQSPSSLSASVGDRVTITCKASQDIHKYIAWYQQKPGQAPRLLIQYTSTLQPGVPSRFSGSGSGTDYTFTISSLQPEDIATYYCLQYDNLRTFGGGTKVEIKR
binds: all assays above

B4: H166-G1d/LB-k (antibody, human IgG1, kappa, V domains shown)
VH: QDQLVQSGAEVKKPGASVKVSCKASGFNIKDTYIQWVRQAPGQGLEWMGRIDPLRRQTKYREKFEGRVTITADTSTNTAYMELSSLRSEDTAVYYCVRSGTSFDFWGQGTLVTVSS
VL: DIQMTQSPSSLSASVGDRVTITCKASQDIHKYIAWYQQKPGQAPRLLIQYTSTLQPGVPSRFSGSGSGTDYTFTISSLQPEDIATYYCLQYDNLRTFGGGTKVEIKR
binds: all assays above

B5: H168-G1d/LB-k (antibody, human IgG1, kappa, V domains shown)
VH: QDQLVQSGAEVKKPGASVKVSCKASGFNIKDTYIQWVRQAPGQGLEWMGRIDPLRRSTKYREKFEGRVTITADTSTNTAYMELSSLRSEDTAVYYCVRSGTSFDFWGQGTLVTVSS
VL: DIQMTQSPSSLSASVGDRVTITCKASQDIHKYIAWYQQKPGQAPRLLIQYTSTLQPGVPSRFSGSGSGTDYTFTISSLQPEDIATYYCLQYDNLRTFGGGTKVEIKR
binds: all assays above

B6: H183-G1d/L21-k (antibody, human IgG1, kappa, V domains shown)
VH: QDQLVQSGAEVKKPGASVKVSCKASGFNIKDTYIQWVRQAPGQGLEWMGRIDPLRRQTKYREKFEGRVTITADTSTNTAYMELSSLRSEDTAVYYCVRSGREFDFWGQGTLVTVSS
VL: DIQMTQSPSSLSASVGDRVTITCQASQDIHKYIAWYQQKPGQAPRLLIQYTSTLQPGVPSRFSGSGSGTDYTFTISSLQPEDIATYYCLQYDNLRTFGGGTKVEIER
binds: all assays above

B7: H183-G1d/L48-k (antibody, human IgG1, kappa, V domains shown)
VH: QDQLVQSGAEVKKPGASVKVSCKASGFNIKDTYIQWVRQAPGQGLEWMGRIDPLRRQTKYREKFEGRVTITADTSTNTAYMELSSLRSEDTAVYYCVRSGREFDFWGQGTLVTVSS
VL: DIQMTQSPSSLSASVGDRVTITCKASQDIHKYIAWYQQKPGQAPRLLIQYTSTLQPGVPSRFSGSGSGTDYTFTISSLQPEDIATYYCLQYDNRRTFGGGTKVEIKR
binds: all assays above

B8: H183-G1d/LB-k (antibody, human IgG1, kappa, V domains shown)
VH: QDQLVQSGAEVKKPGASVKVSCKASGFNIKDTYIQWVRQAPGQGLEWMGRIDPLRRQTKYREKFEGRVTITADTSTNTAYMELSSLRSEDTAVYYCVRSGREFDFWGQGTLVTVSS
VL: DIQMTQSPSSLSASVGDRVTITCKASQDIHKYIAWYQQKPGQAPRLLIQYTSTLQPGVPSRFSGSGSGTDYTFTISSLQPEDIATYYCLQYDNLRTFGGGTKVEIKR
binds: all assays above

B9: H193-G1d/LB-k (antibody, human IgG1, kappa, V domains shown)
VH: QDQLVQSGAEVKKPGASVKVSCKASGFNIKDTYIQWVRQAPGQGLEWMGRIDPLREQTKYREKFEGRVTITADTSTNTAYMELSSLRSEDTAVYYCVRSGRSFDFWGQGTLVTVSS
VL: DIQMTQSPSSLSASVGDRVTITCKASQDIHKYIAWYQQKPGQAPRLLIQYTSTLQPGVPSRFSGSGSGTDYTFTISSLQPEDIATYYCLQYDNLRTFGGGTKVEIKR
binds: all assays above

B10: H206-G1d/L53-k (antibody, human IgG1, kappa, V domains shown)
VH: QDQLVQSGAEVKNPGASVKVSCKASGFNIKDTYIQWVRQAPGQGLEWMGRIDPLRRQTKYREKFEGRVTITADTSTNTAYMELSSLRSEDTAVYYCVRSGREFDFWGQGTLVTVSS
VL: DIQMTQSPSSLSASVGDRVTITCRASQDIHKYIAWYQQKPGQAPRLLIQYTSTLQPGVPSRFSGSGSGTDYTFTISSLQPEDIATYYCLQYDNLRTFGGGTKVEIKR
binds: [1] | [2]

B11: H206-G1d/L73-k (antibody, human IgG1, kappa, V domains shown)
VH: QDQLVQSGAEVKNPGASVKVSCKASGFNIKDTYIQWVRQAPGQGLEWMGRIDPLRRQTKYREKFEGRVTITADTSTNTAYMELSSLRSEDTAVYYCVRSGREFDFWGQGTLVTVSS
VL: DIQMTQSPSSLSASVGDRVTITCRASQDIHKYIAWYQQKPGQAPRLLIQYTSTLQPGVPSRFSGSGSGTDYTFTISSLQPEDIATYYCLQYEQLRTFGGGTKVEIKR
binds: [1] | [2]

B12: H213-G1d/L53-k (antibody, human IgG1, kappa, V domains shown)
VH: QDQLVQSGAEVKKPGASVKVSCKASGFNIKDTYIQWVRQAPGQGLEWMGRIDPLRHQTKYREKFEGRVTITADTSTNTAYMELSSLRSEDTAVYYCVRSGREFDFWGQGTLVTVSS
VL: DIQMTQSPSSLSASVGDRVTITCRASQDIHKYIAWYQQKPGQAPRLLIQYTSTLQPGVPSRFSGSGSGTDYTFTISSLQPEDIATYYCLQYDNLRTFGGGTKVEIKR
binds: [1]

B13: H240-G1d/L53-k (antibody, human IgG1, kappa, V domains shown)
VH: QDQLVQSGAEVKKPGASVKVSCKASGFNIKDTYIQWVRQAPGQGLEWMGRIDPLRKQTKYREKFEGRVTITADTSTNTAYMELSSLRSEDTAVYYCVRSGREFDYWGQGTLVTVSS
VL: DIQMTQSPSSLSASVGDRVTITCRASQDIHKYIAWYQQKPGQAPRLLIQYTSTLQPGVPSRFSGSGSGTDYTFTISSLQPEDIATYYCLQYDNLRTFGGGTKVEIKR
binds: [1] | [2]

B14: H240-G1d/L73-k (antibody, human IgG1, kappa, V domains shown)
VH: QDQLVQSGAEVKKPGASVKVSCKASGFNIKDTYIQWVRQAPGQGLEWMGRIDPLRKQTKYREKFEGRVTITADTSTNTAYMELSSLRSEDTAVYYCVRSGREFDYWGQGTLVTVSS
VL: DIQMTQSPSSLSASVGDRVTITCRASQDIHKYIAWYQQKPGQAPRLLIQYTSTLQPGVPSRFSGSGSGTDYTFTISSLQPEDIATYYCLQYEQLRTFGGGTKVEIKR
binds: [1] | [2]
